# Source: the supplement of paper PMC8728848
# The list shows a part of the results.
# Assays:
# Experiment in all cases: glycan array binding signal (z-score within array); higher = stronger binding
# Settings in all cases: glycan notation: IUPAC condensed, linker removed
# [1] = target: GlcNAc(a1-4)Gal(b1-3)GlcNAc
# Summary of the method: (§1)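 Arrays were curated from the Consortium for Functional Glycomics database, 3228 in total, and kept only where the protein sequence was available. Binding is expressed as a within-array Z-score. This score was averaged across arrays of the same protein sequence at different concentrations or buffers and across linkers, and negative values can be read as non-binding.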
# [2] = target: GlcNAc(a1-4)Gal(b1-4)GalNAc
# Summary of the method: as §1
# [3] = target: GlcNAc(a1-4)Gal(b1-4)GlcNAc
# Summary of the method: as §1
# [4] = target: GlcNAc(a1-4)Gal(b1-4)GlcNAc(b1-3)Gal(b1-4)Glc
# Summary of the method: as §1
# [5] = target: GlcNAc(a1-4)Gal(b1-4)GlcNAc(b1-3)Gal(b1-4)GlcNAc
# Summary of the method: as §1
# [6] = target: GlcNAc(a1-4)Gal(b1-4)GlcNAc(b1-3)Gal(b1-4)GlcNAc(b1-3)Gal(b1-4)GlcNAc
# Summary of the method: as §1
# [7] = target: GlcNAc(a1-4)Gal(b1-4)GlcNAc(b1-3)Gal(b1-4)[Fuc(a1-3)]GlcNAc(b1-3)Gal(b1-4)[Fuc(a1-3)]GlcNAc
# Summary of the method: as §1
# [8] = target: GlcNAc(a1-6)Gal(b1-4)GlcNAc
# Summary of the method: as §1
# [9] = target: GlcNAc(b1-2)Gal(b1-3)GalNAc
# Summary of the method: as §1
# [10] = target: GlcNAc(b1-2)Man(a1-3)[GlcNAc(b1-2)Man(a1-6)]Man(b1-4)GlcNAc(b1-4)GlcNAc
# Summary of the method: as §1
# [11] = target: GlcNAc(b1-2)Man(a1-3)[GlcNAc(b1-2)Man(a1-6)]Man(b1-4)GlcNAc(b1-4)[Fuc(a1-6)]GlcNAc
# Summary of the method: as §1
# [12] = target: GlcNAc(b1-2)Man(a1-3)[GlcNAc(b1-4)][GlcNAc(b1-2)Man(a1-6)]Man(b1-4)GlcNAc(b1-4)GlcNAc
# Summary of the method: as §1
# [13] = target: GlcNAc(b1-2)Man(a1-3)[GlcNAc(b1-4)][GlcNAc(b1-2)Man(a1-6)]Man(b1-4)GlcNAc(b1-4)[Fuc(a1-6)]GlcNAc
# Summary of the method: as §1
# [14] = target: GlcNAc(b1-2)[GlcNAc(b1-4)]Man(a1-3)[GlcNAc(b1-2)Man(a1-6)]Man(b1-4)GlcNAc(b1-4)GlcNAc
# Summary of the method: as §1
# [15] = target: GlcNAc(b1-2)[GlcNAc(b1-4)]Man(a1-3)[GlcNAc(b1-4)][GlcNAc(b1-2)Man(a1-6)]Man(b1-4)GlcNAc(b1-4)GlcNAc
# Summary of the method: as §1
# [16] = target: GlcNAc(b1-2)[GlcNAc(b1-4)]Man(a1-3)[GlcNAc(b1-4)][GlcNAc(b1-2)[GlcNAc(b1-6)]Man(a1-6)]Man(b1-4)GlcNAc(b1-4)GlcNAc
# Summary of the method: as §1
# [17] = target: GlcNAc(b1-2)[GlcNAc(b1-4)]Man(a1-3)[GlcNAc(b1-4)][GlcNAc(b1-2)[GlcNAc(b1-6)]Man(a1-6)]Man(b1-4)GlcNAc(b1-4)[Fuc(a1-6)]GlcNAc
# Summary of the method: as §1
# [18] = target: GlcNAc(b1-2)[GlcNAc(b1-6)]Man(a1-6)[GlcNAc(b1-2)Man(a1-3)]Man(b1-4)GlcNAc(b1-4)GlcNAc
# Summary of the method: as §1
# [19] = target: GlcNAc(b1-2)[GlcNAc(b1-6)]Man(a1-6)[GlcNAc(b1-2)Man(a1-3)]Man(b1-4)GlcNAc(b1-4)[Fuc(a1-6)]GlcNAc
# Summary of the method: as §1
# [20] = target: GlcNAc(b1-2)[GlcNAc(b1-6)]Man(a1-6)[GlcNAc(b1-4)][GlcNAc(b1-2)Man(a1-3)]Man(b1-4)GlcNAc(b1-4)GlcNAc
# Summary of the method: as §1
# GlcNAc(b1-3)Fuc = target: GlcNAc(b1-3)Fuc
# Summary of the method: as §1
# GlcNAc(b1-3)Gal = target: GlcNAc(b1-3)Gal
# Summary of the method: as §1
# [21] = target: GlcNAc(b1-3)Gal(b1-3)GalNAc
# Summary of the method: as §1
# GlcNAc(b1-3)Gal(b1-4)Glc = target: GlcNAc(b1-3)Gal(b1-4)Glc
# Summary of the method: as §1
# [22] = target: GlcNAc(b1-3)Gal(b1-4)GlcNAc
# Summary of the method: as §1
# [23] = target: GlcNAc(b1-3)Gal(b1-4)GlcNAc(b1-2)Man(a1-3)[GlcNAc(b1-3)Gal(b1-4)GlcNAc(b1-2)Man(a1-6)]Man(b1-4)GlcNAc(b1-4)GlcNAc
# Summary of the method: as §1
# [24] = target: GlcNAc(b1-3)Gal(b1-4)GlcNAc(b1-2)Man(a1-3)[GlcNAc(b1-3)Gal(b1-4)GlcNAc(b1-2)Man(a1-6)]Man(b1-4)GlcNAc(b1-4)[Fuc(a1-6)]GlcNAc
# Summary of the method: as §1
# [25] = target: GlcNAc(b1-3)Gal(b1-4)GlcNAc(b1-2)[GlcNAc(b1-3)Gal(b1-4)GlcNAc(b1-6)]Man(a1-6)[GlcNAc(b1-3)Gal(b1-4)GlcNAc(b1-2)Man(a1-3)]Man(b1-4)GlcNAc(b1-4)GlcNAc
# Summary of the method: as §1
# [26] = target: GlcNAc(b1-3)Gal(b1-4)GlcNAc(b1-3)Gal(b1-4)GlcNAc
# Summary of the method: as §1
# [27] = target: GlcNAc(b1-3)Gal(b1-4)GlcNAc(b1-3)Gal(b1-4)GlcNAc(b1-2)Man(a1-3)[GlcNAc(b1-3)Gal(b1-4)GlcNAc(b1-3)Gal(b1-4)GlcNAc(b1-2)Man(a1-6)]Man(b1-4)GlcNAc(b1-4)GlcNAc
# Summary of the method: as §1
# [28] = target: GlcNAc(b1-3)Gal(b1-4)GlcNAc(b1-3)Gal(b1-4)GlcNAc(b1-2)Man(a1-3)[GlcNAc(b1-3)Gal(b1-4)GlcNAc(b1-3)Gal(b1-4)GlcNAc(b1-2)Man(a1-6)]Man(b1-4)GlcNAc(b1-4)[Fuc(a1-6)]GlcNAc
# Summary of the method: as §1
# [29] = target: GlcNAc(b1-3)Gal(b1-4)GlcNAc(b1-3)Gal(b1-4)GlcNAc(b1-2)[GlcNAc(b1-3)Gal(b1-4)GlcNAc(b1-3)Gal(b1-4)GlcNAc(b1-6)]Man(a1-6)[GlcNAc(b1-3)Gal(b1-4)GlcNAc(b1-3)Gal(b1-4)GlcNAc(b1-2)Man(a1-3)]Man(b1-4)GlcNAc(b1-4)[Fuc(a1-6)]GlcNAc
# Summary of the method: as §1
# [30] = target: GlcNAc(b1-3)Gal(b1-4)GlcNAc(b1-3)Gal(b1-4)GlcNAc(b1-3)Gal(b1-4)GlcNAc(b1-2)Man(a1-3)[GlcNAc(b1-3)Gal(b1-4)GlcNAc(b1-3)Gal(b1-4)GlcNAc(b1-3)Gal(b1-4)GlcNAc(b1-2)Man(a1-6)]Man(b1-4)GlcNAc(b1-4)GlcNAc
# Summary of the method: as §1
# [31] = target: GlcNAc(b1-3)Gal(b1-4)GlcNAc(b1-3)Gal(b1-4)GlcNAc(b1-3)Gal(b1-4)GlcNAc(b1-2)Man(a1-3)[GlcNAc(b1-3)Gal(b1-4)GlcNAc(b1-3)Gal(b1-4)GlcNAc(b1-3)Gal(b1-4)GlcNAc(b1-2)Man(a1-6)]Man(b1-4)GlcNAc(b1-4)[Fuc(a1-6)]GlcNAc
# Summary of the method: as §1
# [32] = target: GlcNAc(b1-3)Gal(b1-4)GlcNAc(b1-3)Gal(b1-4)GlcNAc(b1-3)Gal(b1-4)GlcNAc(b1-2)[GlcNAc(b1-3)Gal(b1-4)GlcNAc(b1-3)Gal(b1-4)GlcNAc(b1-3)Gal(b1-4)GlcNAc(b1-6)]Man(a1-6)[GlcNAc(b1-3)Gal(b1-4)GlcNAc(b1-3)Gal(b1-4)GlcNAc(b1-3)Gal(b1-4)GlcNAc(b1-2)Man(a1-3)]Man(b1-4)GlcNAc(b1-4)[Fuc(a1-6)]GlcNAc
# Summary of the method: as §1
# [33] = target: GlcNAc(b1-3)Gal(b1-4)GlcNAc(b1-3)Gal(b1-4)GlcNAc(b1-3)Gal(b1-4)GlcNAc(b1-3)Gal(b1-4)GlcNAc(b1-2)Man(a1-3)[GlcNAc(b1-3)Gal(b1-4)GlcNAc(b1-3)Gal(b1-4)GlcNAc(b1-3)Gal(b1-4)GlcNAc(b1-3)Gal(b1-4)GlcNAc(b1-2)Man(a1-6)]Man(b1-4)GlcNAc(b1-4)GlcNAc
# Summary of the method: as §1
# [34] = target: GlcNAc(b1-3)Gal(b1-4)GlcNAc(b1-3)Gal(b1-4)GlcNAc(b1-3)Gal(b1-4)GlcNAc(b1-3)Gal(b1-4)GlcNAc(b1-2)Man(a1-3)[GlcNAc(b1-3)Gal(b1-4)GlcNAc(b1-3)Gal(b1-4)GlcNAc(b1-3)Gal(b1-4)GlcNAc(b1-3)Gal(b1-4)GlcNAc(b1-2)Man(a1-6)]Man(b1-4)GlcNAc(b1-4)[Fuc(a1-6)]GlcNAc
# Summary of the method: as §1
# [35] = target: GlcNAc(b1-3)Gal(b1-4)GlcNAc(b1-3)Gal(b1-4)GlcNAc(b1-3)Gal(b1-4)GlcNAc(b1-3)Gal(b1-4)GlcNAc(b1-2)[GlcNAc(b1-3)Gal(b1-4)GlcNAc(b1-3)Gal(b1-4)GlcNAc(b1-3)Gal(b1-4)GlcNAc(b1-3)Gal(b1-4)GlcNAc(b1-6)]Man(a1-6)[GlcNAc(b1-3)Gal(b1-4)GlcNAc(b1-3)Gal(b1-4)GlcNAc(b1-3)Gal(b1-4)GlcNAc(b1-3)Gal(b1-4)GlcNAc(b1-2)Man(a1-3)]Man(b1-4)GlcNAc(b1-4)[Fuc(a1-6)]GlcNAc
# Summary of the method: as §1
binder,measurement,setting,value
"SfaEH (Escherichia coli), Q1RDG5 (protein) LLCRNNQTGQVFNSGDTSFRVNVSPVVQYDKSISVLDLSQLVSCQNEDSTGQNYDYLKILKGSGFSPALDTKTYGRLDFTSRPTGYARQLPLQFDLQVTEAFYQYGVWKPFPAKLYLYPAPGVFGKVINNGDLLATLYVNKFSTKGQEAGERNFTWRFYATNDVYIQTGTCRVSSNNVKVDLPSYPGGPVTVPLTVRCDQTQSVSYTLSGPVTGSGNTVFANTAASGSGGVGIQLSDNVGPVPAGQPRSLGQVGSSPVSLGLKASYALTGQASPTPGAVQSVINVTFSYN",glycan array binding signal (z-score),[1],-0.403
same,glycan array binding signal (z-score),[2],-0.363
same,glycan array binding signal (z-score),[3],-1.36
same,glycan array binding signal (z-score),[4],-0.748
same,glycan array binding signal (z-score),[5],-0.911
same,glycan array binding signal (z-score),[6],0.274
same,glycan array binding signal (z-score),[7],0.889
same,glycan array binding signal (z-score),[8],-0.498
same,glycan array binding signal (z-score),[9],-0.327
same,glycan array binding signal (z-score),[10],0.345
same,glycan array binding signal (z-score),[11],-0.917
same,glycan array binding signal (z-score),[12],-0.468
same,glycan array binding signal (z-score),[13],-0.029
same,glycan array binding signal (z-score),[14],0.014
same,glycan array binding signal (z-score),[15],-1.08
same,glycan array binding signal (z-score),[16],-0.811
same,glycan array binding signal (z-score),[17],0.342
same,glycan array binding signal (z-score),[18],-0.668
same,glycan array binding signal (z-score),[19],-0.929
same,glycan array binding signal (z-score),[20],-0.776
same,glycan array binding signal (z-score),GlcNAc(b1-3)Fuc,0.322
same,glycan array binding signal (z-score),GlcNAc(b1-3)Gal,0.771
same,glycan array binding signal (z-score),[21],0.389
same,glycan array binding signal (z-score),GlcNAc(b1-3)Gal(b1-4)Glc,-0.647
same,glycan array binding signal (z-score),[22],-0.979
same,glycan array binding signal (z-score),[23],-0.316
same,glycan array binding signal (z-score),[24],-0.202
same,glycan array binding signal (z-score),[25],2.3
same,glycan array binding signal (z-score),[26],-1.22
same,glycan array binding signal (z-score),[27],1.13
same,glycan array binding signal (z-score),[28],0.293
same,glycan array binding signal (z-score),[29],-0.588
same,glycan array binding signal (z-score),[30],-0.69
same,glycan array binding signal (z-score),[31],0.923
same,glycan array binding signal (z-score),[32],-0.469
same,glycan array binding signal (z-score),[33],-0.262
same,glycan array binding signal (z-score),[34],-0.174
same,glycan array binding signal (z-score),[35],0.251

# Another view of part of the listing above.
binder	measurement	setting	value
SfaEH (Escherichia coli), Q1RDG5 (protein) LLCRNNQTGQVFNSGDTSFRVNVSPVVQYDKSISVLDLSQLVSCQNEDSTGQNYDYLKILKGSGFSPALDTKTYGRLDFTSRPTGYARQLPLQFDLQVTEAFYQYGVWKPFPAKLYLYPAPGVFGKVINNGDLLATLYVNKFSTKGQEAGERNFTWRFYATNDVYIQTGTCRVSSNNVKVDLPSYPGGPVTVPLTVRCDQTQSVSYTLSGPVTGSGNTVFANTAASGSGGVGIQLSDNVGPVPAGQPRSLGQVGSSPVSLGLKASYALTGQASPTPGAVQSVINVTFSYN	glycan array binding signal (z-score)	[10]	0.345
same	glycan array binding signal (z-score)	[11]	-0.917
same	glycan array binding signal (z-score)	[12]	-0.468
